Laboratory results reported in US7449560B2, “Phosophoinositoglycan binding proteins” (Sanofi-Aventis Deutschland GmbH, priority 2002, dated 2008).
Some results were stated once for a whole list of compounds, not compound by compound.

Tested on: IcGce1p binding site at hcDIGs
Experiment: Competition of synthetic PIG(-P) with radiolabeled IcGce1p binding to hcDIGs
Design: species or system rat
Conditions: excess (more than 500 fold) of competitor
Method: 10 μl, of radiolabeled YCN-PIG or IcGce1p (60,000-80,000 dpm/nmol, final conc. 5 μM) was added to 40 μl of suspended plasma membranes, microsomes or hc/IcDIGs (40-80 μg of protein) in binding buffer in the absence or presence of unlabeled competitor (as indicated in the figure legends) in a total volume of 100 μl and incubated (30 min, 4° C.). […] After rigorous shaking (16 h, 25° C.), the radioactivity was counted in 9 ml of ACSII scintillation cocktail (Beckman). Under these conditions, sticking to the tube walls and partitioning into the oil layer of both radiolabeled YCN-PIG and IcGce1p accounted for 50-120 dpm (i.e. less than 0.5% of total radioactivity used per incubation) and therefore was not considered for calculation of binding data. […]
Radiolabeled Gce1p prepared from S. cerevisiae and treated with PI-specific PLC (B. cereus) was incubated (1 h, 4° C.) with hcDIGs (6.5 μg protein) isolated from untreated rat adipocytes in the absence or presence of unlabeled PIG-P. hcDIGs were subjected to oil-layer-centrifugation, solubilized and counted for radioactivity. […]

Question: How did the “displacement of radiolabeled IcGce1p bound to hcDIGs” value turn out when “Tyr-Cys-Asn-NH—(CH2)2—O—PO(OH)O-6Manα1-2)2Manα1-6Manα1-4GluN1-6Ino-1,2-(cyclic)-phosphate [YCN-PIG, phosphoinositolglycan-peptide derived from yeast Gce1p GPI anchor; also chemically synthesized]” was run?
Answer: more than 75%
